The other results are listed elsewhere or left out. Most entries show no effect beyond the scatter of the controls.

Sequences of proteins named here, by UniProt entry; tags and fusion partners are left off. A change or cut given only in a name is not applied to a line headed by its entry.
UniProt Q9P2W9: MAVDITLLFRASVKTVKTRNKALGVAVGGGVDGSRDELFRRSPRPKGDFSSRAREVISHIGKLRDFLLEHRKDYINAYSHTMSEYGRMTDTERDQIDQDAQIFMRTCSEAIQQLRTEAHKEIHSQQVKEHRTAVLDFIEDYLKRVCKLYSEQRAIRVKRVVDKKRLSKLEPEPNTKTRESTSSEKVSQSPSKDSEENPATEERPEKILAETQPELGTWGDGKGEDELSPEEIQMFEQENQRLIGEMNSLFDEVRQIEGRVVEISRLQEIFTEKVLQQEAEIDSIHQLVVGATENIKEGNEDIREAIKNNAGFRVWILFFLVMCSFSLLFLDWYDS
UniProt Q9UK80: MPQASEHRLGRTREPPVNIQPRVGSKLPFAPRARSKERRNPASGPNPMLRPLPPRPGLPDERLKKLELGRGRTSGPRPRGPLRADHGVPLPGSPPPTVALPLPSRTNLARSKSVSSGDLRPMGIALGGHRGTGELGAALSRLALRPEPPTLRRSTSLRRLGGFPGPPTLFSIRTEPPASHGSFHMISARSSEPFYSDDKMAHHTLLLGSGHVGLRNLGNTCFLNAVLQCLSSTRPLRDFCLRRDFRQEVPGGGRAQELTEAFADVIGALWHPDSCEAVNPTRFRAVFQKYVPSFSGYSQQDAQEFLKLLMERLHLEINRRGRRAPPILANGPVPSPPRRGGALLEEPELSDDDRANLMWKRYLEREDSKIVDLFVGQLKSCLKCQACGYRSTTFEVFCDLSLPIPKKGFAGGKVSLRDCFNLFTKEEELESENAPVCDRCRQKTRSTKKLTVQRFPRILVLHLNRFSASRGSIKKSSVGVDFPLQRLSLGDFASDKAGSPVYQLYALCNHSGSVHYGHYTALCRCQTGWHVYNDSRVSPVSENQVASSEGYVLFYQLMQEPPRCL
UniProt Q9UHF7: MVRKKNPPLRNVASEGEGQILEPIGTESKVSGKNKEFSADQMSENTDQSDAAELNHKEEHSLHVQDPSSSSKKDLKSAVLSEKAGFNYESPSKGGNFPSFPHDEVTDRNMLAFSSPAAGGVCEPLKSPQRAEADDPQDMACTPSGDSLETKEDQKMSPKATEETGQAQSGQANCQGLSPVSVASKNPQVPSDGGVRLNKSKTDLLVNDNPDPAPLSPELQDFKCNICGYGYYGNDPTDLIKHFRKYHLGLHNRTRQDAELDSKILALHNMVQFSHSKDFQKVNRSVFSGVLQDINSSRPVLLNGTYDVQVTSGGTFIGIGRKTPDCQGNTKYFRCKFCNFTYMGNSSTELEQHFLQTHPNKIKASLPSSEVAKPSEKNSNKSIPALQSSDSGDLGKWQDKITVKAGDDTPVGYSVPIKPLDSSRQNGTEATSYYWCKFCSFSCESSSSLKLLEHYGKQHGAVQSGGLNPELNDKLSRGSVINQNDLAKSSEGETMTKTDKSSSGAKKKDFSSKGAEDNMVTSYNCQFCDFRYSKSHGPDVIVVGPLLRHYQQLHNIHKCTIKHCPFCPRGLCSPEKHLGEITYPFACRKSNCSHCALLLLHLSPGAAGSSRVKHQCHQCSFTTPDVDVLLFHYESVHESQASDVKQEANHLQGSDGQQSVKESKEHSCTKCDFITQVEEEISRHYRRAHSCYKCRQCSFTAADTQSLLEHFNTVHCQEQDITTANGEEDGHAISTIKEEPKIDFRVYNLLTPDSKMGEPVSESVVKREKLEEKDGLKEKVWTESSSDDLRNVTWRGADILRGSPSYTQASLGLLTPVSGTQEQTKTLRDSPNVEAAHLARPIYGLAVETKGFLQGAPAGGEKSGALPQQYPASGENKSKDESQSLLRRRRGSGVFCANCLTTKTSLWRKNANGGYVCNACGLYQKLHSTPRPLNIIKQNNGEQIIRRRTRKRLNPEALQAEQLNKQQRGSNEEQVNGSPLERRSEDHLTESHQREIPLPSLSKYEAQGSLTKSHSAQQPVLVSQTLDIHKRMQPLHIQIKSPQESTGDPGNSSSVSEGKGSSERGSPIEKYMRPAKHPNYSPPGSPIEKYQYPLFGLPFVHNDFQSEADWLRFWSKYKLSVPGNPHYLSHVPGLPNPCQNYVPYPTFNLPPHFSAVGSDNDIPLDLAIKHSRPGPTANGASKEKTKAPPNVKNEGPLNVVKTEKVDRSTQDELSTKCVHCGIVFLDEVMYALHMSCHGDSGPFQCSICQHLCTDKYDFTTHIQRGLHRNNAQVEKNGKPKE
UniProt Q9P107: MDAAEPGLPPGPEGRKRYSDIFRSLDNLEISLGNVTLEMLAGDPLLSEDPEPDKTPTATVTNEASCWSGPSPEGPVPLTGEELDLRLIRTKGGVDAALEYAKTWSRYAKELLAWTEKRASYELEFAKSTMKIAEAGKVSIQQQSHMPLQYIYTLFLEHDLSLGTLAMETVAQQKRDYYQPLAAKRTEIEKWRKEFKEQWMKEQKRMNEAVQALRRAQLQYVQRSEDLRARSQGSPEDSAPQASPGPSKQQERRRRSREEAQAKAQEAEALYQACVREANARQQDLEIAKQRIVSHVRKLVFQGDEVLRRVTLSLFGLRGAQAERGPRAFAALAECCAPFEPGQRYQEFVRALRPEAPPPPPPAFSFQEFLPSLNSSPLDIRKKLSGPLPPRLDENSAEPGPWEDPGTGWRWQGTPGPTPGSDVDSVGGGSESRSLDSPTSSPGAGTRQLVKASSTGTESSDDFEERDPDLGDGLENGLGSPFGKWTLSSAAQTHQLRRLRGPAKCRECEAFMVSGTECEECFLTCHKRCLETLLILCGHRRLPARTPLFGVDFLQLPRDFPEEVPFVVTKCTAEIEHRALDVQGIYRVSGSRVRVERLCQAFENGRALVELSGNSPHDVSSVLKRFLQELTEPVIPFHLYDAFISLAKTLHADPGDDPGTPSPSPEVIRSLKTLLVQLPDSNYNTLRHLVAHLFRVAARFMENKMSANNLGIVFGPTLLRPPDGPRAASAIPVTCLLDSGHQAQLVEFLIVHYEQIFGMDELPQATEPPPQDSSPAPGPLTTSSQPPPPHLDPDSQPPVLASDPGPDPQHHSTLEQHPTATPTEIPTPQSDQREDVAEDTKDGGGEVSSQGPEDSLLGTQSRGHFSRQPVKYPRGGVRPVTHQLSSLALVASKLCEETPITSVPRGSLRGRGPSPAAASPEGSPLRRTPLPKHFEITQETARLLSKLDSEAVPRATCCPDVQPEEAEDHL
UniProt Q9UH36: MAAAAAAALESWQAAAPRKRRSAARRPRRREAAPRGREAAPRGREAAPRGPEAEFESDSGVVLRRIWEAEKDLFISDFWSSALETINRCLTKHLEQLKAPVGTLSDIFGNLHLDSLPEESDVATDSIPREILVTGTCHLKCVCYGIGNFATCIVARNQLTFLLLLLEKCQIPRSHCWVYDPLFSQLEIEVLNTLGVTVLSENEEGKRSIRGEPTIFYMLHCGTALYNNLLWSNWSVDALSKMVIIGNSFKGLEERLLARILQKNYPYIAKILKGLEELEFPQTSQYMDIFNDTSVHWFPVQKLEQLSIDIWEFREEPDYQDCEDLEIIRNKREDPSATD
UniProt Q9P206: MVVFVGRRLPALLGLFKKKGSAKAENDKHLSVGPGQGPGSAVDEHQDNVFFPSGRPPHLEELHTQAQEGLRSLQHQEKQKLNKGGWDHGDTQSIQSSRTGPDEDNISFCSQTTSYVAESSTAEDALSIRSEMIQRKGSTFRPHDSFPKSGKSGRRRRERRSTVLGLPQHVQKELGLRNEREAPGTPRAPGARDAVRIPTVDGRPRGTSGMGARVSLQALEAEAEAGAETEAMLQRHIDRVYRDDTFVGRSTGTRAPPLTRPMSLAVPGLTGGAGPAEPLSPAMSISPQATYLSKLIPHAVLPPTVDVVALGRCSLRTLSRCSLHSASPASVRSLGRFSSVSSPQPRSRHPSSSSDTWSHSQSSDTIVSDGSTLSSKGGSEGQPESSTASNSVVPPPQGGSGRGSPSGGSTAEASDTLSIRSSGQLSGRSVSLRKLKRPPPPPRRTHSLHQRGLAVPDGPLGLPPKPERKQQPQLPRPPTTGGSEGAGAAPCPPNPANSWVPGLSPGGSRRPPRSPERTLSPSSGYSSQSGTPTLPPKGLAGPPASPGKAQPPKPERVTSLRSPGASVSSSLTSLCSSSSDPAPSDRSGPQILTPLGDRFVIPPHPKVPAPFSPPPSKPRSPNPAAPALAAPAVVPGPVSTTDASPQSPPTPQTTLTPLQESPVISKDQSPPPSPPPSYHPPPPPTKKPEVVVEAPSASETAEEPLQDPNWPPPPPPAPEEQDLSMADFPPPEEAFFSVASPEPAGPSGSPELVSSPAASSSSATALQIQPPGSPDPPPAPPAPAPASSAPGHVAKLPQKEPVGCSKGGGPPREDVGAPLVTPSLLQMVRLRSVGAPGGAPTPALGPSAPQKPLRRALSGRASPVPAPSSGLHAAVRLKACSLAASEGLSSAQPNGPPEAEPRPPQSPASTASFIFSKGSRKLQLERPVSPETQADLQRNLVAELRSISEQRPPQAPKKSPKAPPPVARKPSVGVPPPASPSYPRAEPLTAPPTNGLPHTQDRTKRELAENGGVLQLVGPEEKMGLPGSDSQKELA
UniProt Q9UBQ7: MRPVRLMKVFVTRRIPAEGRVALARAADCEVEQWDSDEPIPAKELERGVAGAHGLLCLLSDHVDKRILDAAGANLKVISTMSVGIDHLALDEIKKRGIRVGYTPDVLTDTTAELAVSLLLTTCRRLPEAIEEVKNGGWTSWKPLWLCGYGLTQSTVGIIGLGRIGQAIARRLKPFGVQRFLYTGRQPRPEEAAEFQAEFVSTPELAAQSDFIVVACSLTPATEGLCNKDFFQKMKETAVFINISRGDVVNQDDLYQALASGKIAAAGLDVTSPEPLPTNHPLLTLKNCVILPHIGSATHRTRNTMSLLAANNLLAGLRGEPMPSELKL
UniProt Q9UK96: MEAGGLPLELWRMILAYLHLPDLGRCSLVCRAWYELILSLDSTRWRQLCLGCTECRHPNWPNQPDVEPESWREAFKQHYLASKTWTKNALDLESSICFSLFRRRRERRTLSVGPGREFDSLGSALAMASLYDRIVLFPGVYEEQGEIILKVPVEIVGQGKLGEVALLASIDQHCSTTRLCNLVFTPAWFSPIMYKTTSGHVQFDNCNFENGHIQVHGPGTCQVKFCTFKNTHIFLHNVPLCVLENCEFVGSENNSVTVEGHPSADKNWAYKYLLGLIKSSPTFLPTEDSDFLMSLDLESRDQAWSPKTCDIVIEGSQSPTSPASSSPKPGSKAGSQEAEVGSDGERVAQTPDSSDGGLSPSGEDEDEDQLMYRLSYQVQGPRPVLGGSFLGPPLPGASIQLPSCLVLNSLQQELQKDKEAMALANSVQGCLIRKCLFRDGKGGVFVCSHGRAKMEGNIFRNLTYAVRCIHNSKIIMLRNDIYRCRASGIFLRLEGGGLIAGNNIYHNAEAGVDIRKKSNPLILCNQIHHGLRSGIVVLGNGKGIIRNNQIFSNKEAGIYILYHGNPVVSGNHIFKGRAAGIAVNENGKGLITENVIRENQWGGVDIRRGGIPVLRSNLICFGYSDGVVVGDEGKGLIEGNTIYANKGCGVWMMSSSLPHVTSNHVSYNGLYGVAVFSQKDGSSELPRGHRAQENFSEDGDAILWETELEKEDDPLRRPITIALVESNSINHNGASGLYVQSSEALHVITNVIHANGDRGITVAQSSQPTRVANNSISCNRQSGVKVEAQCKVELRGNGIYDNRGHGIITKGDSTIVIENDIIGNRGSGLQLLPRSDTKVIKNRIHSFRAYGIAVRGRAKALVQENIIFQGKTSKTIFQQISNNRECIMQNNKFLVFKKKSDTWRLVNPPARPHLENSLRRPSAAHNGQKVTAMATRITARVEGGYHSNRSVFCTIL

Compound in this assay: CN[C@@H]1C[C@H]2O[C@@](C)([C@@H]1OC)n1c3ccccc3c3c4c(c5c6ccccc6n2c5c31)C(=O)NC4 [staurosporine]
As to the kind of experiment: log2 fold change of tryptic peptide abundance, ligand vs vehicle (limited proteolysis) (log2 ratio); higher = more trypsin-susceptible (destabilized). The settings on record: ligand concentration: 20 uM; sample: K562 cleared lysate; digestion: 4 min, 22 C (HT-PELSA RT4min, Orbitrap Astral).
Take “STX18 (peptide sequence: VSQSPSKDSEENPATEERPEK, peptide start residue: 186) (UniProt Q9P2W9)”: the log2 fold change was -0.607.

Consider “UniProt Q9UK80 (peptide sequence: LHLEINR, peptide start residue: 313)”, for which the log2 fold change was 0.0657.

Consider “TRPS1 (peptide sequence: RSEDHLTESHQR, peptide start residue: 983) (UniProt Q9UHF7)”, for which the log2 fold change was -1. On to “GMIP (peptide sequence: KLVFQGDEVLR, peptide start residue: 298) (UniProt Q9P107)”, for which the log2 fold change was 0.452. With “SRRD (peptide sequence: AAAAAAALESWQAAAPR, peptide start residue: 2) (UniProt Q9UH36)” the figure was -0.558. On to “PHRF1 (peptide sequence: AQTVQAVR, peptide start residue: 870) (UniProt Q9P1Y6)”, for which the log2 fold change was 0.303. On to “KIAA1522 (peptide sequence: GLAVPDGPLGLPPKPERK, peptide start residue: 452) (UniProt Q9P206)”, for which the log2 fold change is 0.425.

Regarding “GRHPR (peptide sequence: ILDAAGANLK, peptide start residue: 67) (UniProt Q9UBQ7)”, the log2 fold change was -0.406. Next, “UniProt Q9UK96 (peptide sequence: GITVAQSSQPTR, peptide start residue: 759)”: 0.642. With “RRBP1 (peptide sequence: AQEQQQQMAELHSK, peptide start residue: 908) (UniProt Q9P2E9)” the figure was -0.454.

These data come from the supplement of paper PMC12819154, “High-throughput peptide-centric local stability assay extends protein–ligand identification to membrane proteins, tissues and bacteria” (Nature Structural & Molecular Biology, 2025).
